This is one part of the list. These are further read-outs of the screen, such as a control signal, another cell line or another target. No call is given for them. Compounds called inactive in the main read-out are mostly missing here. The note in brackets gives the kind of curve behind each potency; many fits are weak.
Experiment: qHTS Assay for Lipid Storage Modulators in Drosophila S3 Cells;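 for cell number change: cells counted by Cell Tracker Red CMTPX staining in the red channel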
Details: BODIPY lipid droplet fluorescence, 18-24 h; for cell number change: measured here: cell count max response, cells fed with added oleic acid
Summary of the method: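 Drosophila S3 cells loaded with oleic acid (400 uM, as added) and compounds at several concentrations; lipid droplets imaged by 488-nm laser-scanning cytometry, 500–530 nm intensity and object ratio to cell channel. Percent activity normalized to 20 uM Triacsin C.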

[1] = measured here: cell number channel AC50, cells fed with added oleic acid
[2] = measured here: lipid fluorescence (Fed channel) AC50, cells fed with added oleic acid

Row | Compound | cell number change [%] | AC50 [1] | AC50 [2]
1 | O=C(Oc1cccnc1)c1ccco1 | -31.5 | 0.231 µM [falling, full curve] | –
2 | Cc1csc(CNC(=O)CC2C(=O)NCCN2Cc2ccc(F)cc2Cl)n1 (stereo not drawn) | 4.24 | – | –
3 | COc1ccc2c(c1)[C@@H]1[C@H](CO2)[C@H](c2ccccc2)[C@]2(C)C(=O)Nc3ccc(C)cc3C(=O)N12 | – | – | 3.26 µM [falling, single point]
4 | CCCC(=O)Nc1nnc(SCC(=O)N2C(C)CCCC2C)s1 (stereo not drawn) | 12.4 | – | 6.51 µM [falling, single point]
5 | Nc1ccc(C(=O)N2N=C(c3ccc(F)cc3)CC2(O)C(F)(F)F)cc1 (stereo not drawn) | 4.26 | 0.0517 µM [rising, full curve, poor fit] | 29.1 µM [rising, single point]
6 | COC1=C(Nc2ccc(OC)cc2)C(=O)c2ccccc2C1=O | -78.8 | 29.1 µM [falling, single point] | 23.1 µM [falling, single point]
7 | COc1ccc(CC(=O)N2CC3(C)CC2CC(C)(C)C3)cc1OC (stereo not drawn) | 13.6 | – | 0.0058 µM [rising, full curve, poor fit]
8 | O=C(Nc1cccc(O)c1)c1ccc(S(=O)(=O)N2CCCCCC2)cc1 | -52.8 | 36.6 µM [falling, partial curve, poor fit] | 6.51 µM [falling, partial curve, poor fit]
9 | O=C(O)CCc1ccc(-c2cccs2)n1CCC(=O)O | -7.53 | – | 0.058 µM [rising, full curve, poor fit]
10 | Cc1ccccc1OCC(=O)NCCC(=O)O | 5.01 | – | 0.058 µM [falling, full curve, poor fit]
11 | O=C(NCCC1=CCCCC1)C1CCN(S(=O)(=O)c2cccc3nonc23)CC1 | 11.7 | – | 25.9 µM [rising, single point]
12 | Cc1ccc(NC(=O)COC(=O)C2CSC3(C)CCC(=O)N23)c(C)c1 (stereo not drawn) | -0.55 | – | 0.00461 µM [falling, full curve, poor fit]
13 | COc1ccc([C@H]2CC(=O)C=C(c3cccc(OC(F)(F)F)c3)C2)cc1 | -30.3 | 29.1 µM [falling, partial curve] | –
14 | COc1ccccc1N1CCN(C(=O)C2CCC(Cn3c(=S)[nH]c4ccccc4c3=O)CC2)CC1 (stereo not drawn) | 9.94 | – | 29.1 µM [rising, single point]
15 | CC(=O)c1ccc(NC(=O)C(C)Sc2nnnn2C)cc1 (stereo not drawn) | -3.17 | – | 0.00517 µM [falling, full curve, poor fit]
16 | Cc1ccc(C)c(N2CCN(C(=O)C3CCN(S(=O)(=O)c4c(C)noc4C)CC3)CC2)c1 | -13.9 | – | 1.46 µM [falling, full curve]
17 | Cc1nc(N2CCN(C(c3ccccc3)c3ccccc3)CC2)nc2c1C(=O)CCC2 | – | 5.17 µM [falling, single point] | 0.58 µM [falling, full curve]
18 | Nc1nc2n(n1)C(c1ccco1)CC(c1ccc(Cl)c(Cl)c1)N2 (stereo not drawn) | -20.1 | – | –
19 | O=C(Cn1cnnn1)OCC(=O)c1ccc(Cl)s1 | 9.85 | – | 0.58 µM [falling, full curve, poor fit]
20 | Cc1ccc(NS(=O)(=O)c2ccc3c(c2)NC(=O)C(C)C(=O)N3)cc1C (stereo not drawn) | 18.7 | – | –

Complete entries, looked up by structure:
COc1ccc2c(c1)[C@@H]1[C@H](CO2)[C@H](c2ccccc2)[C@]2(C)C(=O)Nc3ccc(C)cc3C(=O)N12 as listed: AC50 [2]: 3.26 µM [falling, single point]
CCCC(=O)Nc1nnc(SCC(=O)N2C(C)CCCC2C)s1 (stereo not drawn) as listed: cell number change [%]: 12.4; AC50 [2]: 6.51 µM [falling, single point]
O=C(NCCC1=CCCCC1)C1CCN(S(=O)(=O)c2cccc3nonc23)CC1 as listed: cell number change [%]: 11.7; AC50 [2]: 25.9 µM [rising, single point]
Cc1nc(N2CCN(C(c3ccccc3)c3ccccc3)CC2)nc2c1C(=O)CCC2 as listed: AC50 [1]: 5.17 µM [falling, single point]; AC50 [2]: 0.58 µM [falling, full curve]

(more compounds)

Row | Compound | cell number change [%] | AC50 [1] | AC50 [2]
21 | CCOC(=O)N1CCN(Cc2ccc(O)c3ncccc23)CC1 | -18.2 | – | 14.6 µM [falling, single point]
22 | O=C(Nc1cccnc1)c1ccc(Cl)c(S(=O)(=O)N2CCCCCC2)c1 | -3.69 | – | –
23 | CC1CCCC(C)N1C(=O)CN1CCN(c2nc(-c3ccc(F)cc3)cs2)CC1 (stereo not drawn) | -76 | 29.1 µM [falling, single point] | 29.1 µM [falling, partial curve]
24 | O=C(CCC(=O)Nc1ccccc1)NNC(=O)c1ccccc1Cl | -15.6 | – | 5.17 µM [falling, partial curve]
25 | Cc1cc(C(=O)NC(C)CCc2ccccc2)ccc1[N+](=O)[O-] (stereo not drawn) | -3.65 | – | –
26 | CCN(CC)S(=O)(=O)c1ccc(C)c(NC(=O)Cc2ccc(S(=O)(=O)N3CCOCC3)s2)c1 | 8.5 | – | –
27 | O=S(=O)(NC12CC3CC(CC(C3)C1)C2)c1ccc(F)cc1 | -8 | – | 6.51 µM [falling, single point]
28 | CC(C)Oc1ccc(C2CC(=O)N(c3cccc(Br)c3)C2=O)cc1 (stereo not drawn) | 11.7 | 0.0058 µM [rising, full curve, poor fit] | –
29 | Cc1ccccc1C(=O)NC(=S)NCCC1=CCCCC1 | -14.9 | – | –
30 | Cc1cc(C)n(-c2c(F)c(F)c(CO)c(F)c2F)n1 | – | 0.58 µM [falling, single point] | –
31 | Nc1n[nH]c2c1C1(CCCCC1)Cc1ccccc1-2 | -61.1 | 20.6 µM [falling, single point] | 18.4 µM [falling, single point]
32 | C(=N\Nc1nc2ccccc2[nH]1)/c1c[nH]c2ccccc12 | -49.7 | 16.4 µM [falling, partial curve] | 29.1 µM [falling, single point]
33 | Cc1cc(C)cc(OCC(=O)O/N=C(\N)Cc2ccc([N+](=O)[O-])cc2)c1 | 16.4 | 2.59 µM [falling, single point] | 5.17 µM [falling, single point]
34 | COc1ccc(C(CNC(=O)c2ccc(-c3ccccc3)cc2)N(C)C)cc1OC (stereo not drawn) | 12.6 | – | 29.1 µM [falling, single point]
35 | Cc1nn(C)cc1CN(C)C(=O)c1sc2cccc(Cl)c2c1Cl | -3.7 | – | 0.00461 µM [rising, full curve, poor fit]
36 | Cc1c(N=C2SC(CC(=O)Nc3ccccc3)C(=O)N2CCN2CCOCC2)c(=O)n(-c2ccccc2)n1C (stereo not drawn) | – | – | 6.51 µM [rising, single point]
37 | Cc1ccc(Cl)cc1NC(=O)C1CCCN(c2cnccn2)C1 (stereo not drawn) | – | – | 1.84 µM [falling, partial curve, poor fit]
38 | CSCCC(NC(=O)c1ccco1)C(=O)N1CCC(C(N)=O)CC1 (stereo not drawn) | -23.2 | 6.51 µM [falling, single point] | 3.26 µM [falling, full curve]
39 | COc1ccc(NC(=O)CN(C2CCCCC2)S(C)(=O)=O)cc1Cl | 52.4 | 8.2 µM [rising, partial curve, poor fit] | 6.51 µM [rising, single point]
40 | CCCCN(C(=O)c1ccc(-n2nc(C)cc2C)cc1)c1c(N)n(CCC)c(=O)[nH]c1=O | -2.96 | – | 10.3 µM [falling, partial curve]

Row | Compound | cell number change [%] | AC50 [1] | AC50 [2]
41 | CC(C)(C)c1ccc(C(=O)CS(=O)(=O)c2ccccc2)cc1 | 14.7 | 1.64 µM [rising, partial curve, poor fit] | –
42 | Cc1ccc(O)c(C=Nc2cc(C)ccc2O)c1 | – | – | 6.51 µM [falling, partial curve]
43 | N#Cc1nc(Cc2ccccc2)oc1NCCCn1ccnc1 | -19.6 | – | 5.17 µM [falling, full curve, poor fit]
44 | COc1cc2c(cc1OC)C(C(=O)N1CCCC1)C(c1ccccc1F)N(C)C2=O (stereo not drawn) | -70.5 | 4.11 µM [falling, full curve] | 5.17 µM [falling, full curve]
45 | N#CCC(=O)N/N=C\c1cccc(OC/C=C/c2ccccc2)c1 | 5.57 | – | 6.51 µM [rising, partial curve, poor fit]
46 | Cc1cccc(-c2noc(CN(C(=O)c3ccc(Br)o3)C(C)C)n2)c1 | – | 1.46 µM [rising, full curve] | 0.517 µM [rising, full curve]
47 | COc1ccc(NC(=O)c2cccnc2NCCc2ccccc2)cc1 | 8.37 | – | 0.0164 µM [rising, full curve]
48 | CCOc1cc(C2C3=C(CCCC3=O)NC3=C2C(=O)CCC3)ccc1OCCO | 9.94 | – | 29.1 µM [rising, single point]
49 | O=C(NNc1nc2c(F)cccc2s1)C1=COCCO1 | -13 | 0.116 µM [falling, full curve, poor fit] | 0.103 µM [falling, full curve, poor fit]
50 | C/C(=N\NC(=O)C(=O)Nc1c(C)n(C)n(-c2ccccc2)c1=O)c1ccc(Cl)s1 | – | 6.51 µM [falling, single point] | 5.17 µM [falling, full curve]
51 | COc1cc(-c2nnc(NC(=O)CS(=O)(=O)c3ccc(F)cc3)o2)cc(OC)c1OC | 1.92 | – | 29.1 µM [rising, single point]
52 | O=C(Cn1nc(C(=O)O)c2ccccc2c1=O)NCCC1=CCCCC1 | – | – | 1.84 µM [falling, partial curve]
53 | O=C(NCCS(=O)(=O)NCc1ccc2c(c1)OCO2)c1ccccc1 | 17.5 | – | –
54 | Cc1ccc(C)c(OCCC(=O)OCC(=O)N2CCN(c3ccccc3)CC2)c1 | 26.2 | – | 11.6 µM [falling, single point]
55 | Cc1ccc(C2(C)NC(=O)N(CC(=O)N3CCN(S(=O)(=O)c4cccc(F)c4)CC3)C2=O)cc1 (stereo not drawn) | 20.7 | – | 1.84 µM [rising, partial curve]
56 | Cc1oc2ccc(OCc3ccc(Br)cc3)cc2c1C(=O)O | -55.7 | 23.1 µM [falling, single point] | 16.4 µM [falling, partial curve, poor fit]
57 | CC(C)(C)c1nnc2sc(SCCN3C(=O)c4ccccc4C3=O)nn2c1=O | -1.56 | – | –
58 | O=C(Oc1c(Br)cc([N+](=O)[O-])cc1Br)c1cccnc1 | -23 | – | 10.3 µM [falling, partial curve]

— PubChem BioAssay AID2685 (National Center for Advancing Translational Sciences (NCATS), 2010)
